Measured values: PubChem BioAssay AID1487 (National Center for Advancing Translational Sciences (NCATS), 2009)
The other results are listed elsewhere or left out. Further columns of the screen follow, without active or inactive calls. Compounds called inactive in the main read-out are mostly missing here. Words in brackets tell the shape of the fitted curve; partial curves, single points and poor fits give uncertain potencies.

Assay: qHTS Assay for Modulators of Lamin A Splicing
Settings: HeLa LMNA splicing GFP/RFP minigene ratio, 48 h
Outline: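 S3 HeLa stable clones carrying a lamin A-EGFP splicing minigene plus DsRed2 were seeded at 600 cells/well in Opti-MEM with 2% FBS, pin-dosed and incubated 48 h at 37°C. Acumen cytometry (488 nm) gave the GFP/RFP total-intensity ratio.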

[1] = measured here: GFP splicing reporter channel
[2] = measured here: RFP viability control channel

| Structure (SMILES) | AC50 [1] | AC50 [2] |
| --- | --- | --- |
| CC1CN(S(=O)(=O)c2cccc3cnccc23)CCN1 (stereo not given) | 3.55 µM [rising, full curve] | – |
| Cc1c(CN2CCC(CO)(CCOc3ccccc3)CC2)[nH]c2ccc(Cl)cc12 | 11.2 µM [falling, partial curve] | 35.5 µM [falling, partial curve, poor fit] |
| O=C(NP(=O)(N1CCOCC1)N1CCOCC1)C1=C(N2CCOCC2)/C(=C\c2ccccc2)CC1 | 35.5 µM [falling, single point] | – |
| CCC1=NN2C(=N)/C(=C/c3c(C)nn(-c4ccccc4)c3Cl)C(=O)N=C2S1 | – | 12.6 µM [rising, single point] |
| CCOc1c(O)ccc(/C=C2\SC(=S)NC2=O)c1[N+](=O)[O-] | – | 35.5 µM [rising, single point] |
| O=C(CCSCc1ccc(Cl)cc1)NCc1ccc(F)cc1Cl | – | 31.6 µM [rising, single point] |
| CCOC(=O)N/N=C/c1cn(CCCOc2ccc(C)cc2)c2ccccc12 | 0.224 µM [rising, full curve, poor fit] | 28.2 µM [rising, single point] |
| CCC(=O)NC(=S)Nc1ccc(NC(=O)c2ccc([N+](=O)[O-])cc2)cc1 | 25.1 µM [rising, single point] | 31.6 µM [rising, single point] |
| O=C(NCc1cccs1)c1cccnc1SCCS(=O)(=O)c1ccc(C(F)(F)F)cn1 | – | 35.5 µM [falling, partial curve, poor fit] |
| CCOc1ccc(Nc2oc(Cc3ccccc3)nc2C#N)cc1 | – | 14.1 µM [rising, single point] |
| CCOC(CCn1c(SCc2cccc([N+](=O)[O-])c2)nc2ccccc2c1=O)OCC | 12.6 µM [rising, single point] | 14.1 µM [rising, partial curve] |
| Cc1cc2oc(=O)cc(CN3CCN(S(=O)(=O)c4ccc5c(c4)OCCO5)CC3)c2cc1C | 4.47 µM [rising, single point] | 5.62 µM [rising, single point] |
| N#CC(C#N)=C1C=C2C=C(N3CCOCC3)CCC2CC1 (stereo not given) | 0.891 µM [falling, full curve] | 0.891 µM [falling, full curve] |
| C=CCNC(=O)CC(=O)N/N=C/c1cccc(C)c1 | – | 0.2 µM [rising, full curve, poor fit] |
| O=[N+]([O-])c1ccc(N2CCN(S(=O)(=O)c3ccc(Cl)c(Cl)c3)CC2)cc1NCCN1CCOCC1 | – | 6.31 µM [falling, single point] |
| O=C(CCN1C(=O)/C(=C/c2cccs2)SC1=S)Nc1ccccn1 | – | 35.5 µM [falling, single point] |
| Nc1cc(C(F)(F)F)ccc1N1CCOCC1 | – | 2.82 µM [falling, single point] |
| CCN(c1ccccc1)S(=O)(=O)c1cc(NC(=O)Nc2ccccc2C#N)ccc1Cl | – | 6.31 µM [rising, partial curve, poor fit] |
| CCc1nn(-c2cc(Cl)ccc2OC)c2c1C(=O)CCC2 | – | 31.6 µM [rising, single point] |
| Cc1cc(C(=O)N2CCN(c3ccc([N+](=O)[O-])cc3)CC2)no1 | 0.0355 µM [rising, full curve, poor fit] | – |
| Cc1csc(SCc2ccccc2C(=O)O)n1 | – | 5.62 µM [rising, single point] |
| O=C(O)[C@@H]1CCCN1 | 35.5 µM [falling, single point] | 0.2 µM [falling, full curve, poor fit] |
| CCOC(=O)c1sc2ccccc2c1S(=O)(=O)N1CCN(c2cc(C)ccc2C)CC1 | – | 11.2 µM [rising, partial curve, poor fit] |
| Cc1ccc(C(C[N+](=O)[O-])c2c(C)cc3ccccn23)cc1 (stereo not given) | 11.2 µM [rising, single point] | 12.6 µM [rising, single point] |
| CCOC(=O)N1CCN(S(=O)(=O)c2ccc3c(c2)OCC(=O)N3)CC1 | – | 35.5 µM [rising, single point] |
| Cn1nc(-c2ccc(C(=O)N3CCN(Cc4ccccc4)CC3)cc2)c2ccccc2c1=O | – | 12.6 µM [rising, single point] |
| COc1ccc(OCC(=O)Nc2ccc3nn(-c4ccc(OC)cc4)nc3c2)cc1 | – | 0.0501 µM [falling, full curve, poor fit] |
| CCCOC1CCCN(C(=O)c2cc(Cl)c(Cl)cc2C(=O)O)C1 (stereo not given) | 5.01 µM [falling, partial curve, poor fit] | – |

Full records, quoted from the list. Order of values: AC50 [1] | AC50 [2]
COc1ccc(OCC(=O)Nc2ccc3nn(-c4ccc(OC)cc4)nc3c2)cc1 in the list: – | 0.0501 µM [falling, full curve, poor fit]
Cn1nc(-c2ccc(C(=O)N3CCN(Cc4ccccc4)CC3)cc2)c2ccccc2c1=O in the list: – | 12.6 µM [rising, single point]
CCOC(CCn1c(SCc2cccc([N+](=O)[O-])c2)nc2ccccc2c1=O)OCC in the list: 12.6 µM [rising, single point] | 14.1 µM [rising, partial curve]

(list continues)

| Structure (SMILES) | AC50 [1] | AC50 [2] |
| --- | --- | --- |
| CCCCn1nnc(NC(=O)COc2cc(C)ccc2C(C)C)n1 | – | 1.26 µM [rising, full curve, poor fit] |
| CCc1c(C)nc(SCC(=O)c2ccc(C)c(C)c2)[nH]c1=O | – | 35.5 µM [rising, single point] |
| CC(=O)c1sc(N/N=C\c2ccccc2O)nc1C | 35.5 µM [falling, single point] | 25.1 µM [falling, single point] |
| COc1cc(CN(C)CC(=O)c2[nH]c(C)c(C(C)=O)c2C)ccc1OC(F)F | – | 11.2 µM [rising, single point] |
| CC(C(=O)NC1CCCc2ccccc21)N1CCN(Cc2ccc3c(c2)OCO3)CC1 (stereo not given) | – | 5.62 µM [rising, single point] |
| CNCC/C=C1/c2ccccc2CSc2ccccc21 | 35.5 µM [rising, single point] | 17.8 µM [rising, partial curve, poor fit] |
| COc1ccc(-c2nsc3c(SCc4ccccc4)ncnc23)cc1 | 0.01 µM [falling, full curve, poor fit] | – |
| OCCn1c(-c2ccc3c(c2)OCO3)csc1=Nc1ccccc1 | – | 11.2 µM [rising, partial curve, poor fit] |
| Clc1ccc(-c2nnc(SCc3nc4ccccc4[nH]3)o2)c(Cl)c1 | 35.5 µM [rising, single point] | 35.5 µM [rising, single point] |
| O=C(OC(C(=O)Nc1cc(Cl)cc(Cl)c1)c1ccccc1)C1=COCCO1 (stereo not given) | 11.2 µM [rising, single point] | 8.91 µM [rising, partial curve] |
| CCc1ccc(NC(=O)C(C)OC(=O)c2ccc(NS(=O)(=O)c3ccc(C)c([N+](=O)[O-])c3)cc2)cc1 (stereo not given) | – | 8.91 µM [rising, partial curve, poor fit] |
| CC(C)C(C)NC(=O)COc1ccc(S(=O)(=O)N2CCOCC2)cc1Cl (stereo not given) | 0.316 µM [falling, partial curve] | – |
| CC(C)(C)NS(=O)(=O)c1ccc(CCC(=O)Nc2cc(Cl)ccc2Oc2ccccc2)cc1 | – | 31.6 µM [rising, single point] |
| COC(=O)N/N=C/c1cc(Cl)cc(Cl)c1OCc1ccccc1 | 20 µM [rising, single point] | 35.5 µM [rising, partial curve] |
| O=C(CSc1ccc(F)cc1)NCCSc1ccccc1 | 8.91 µM [falling, partial curve] | 7.94 µM [falling, partial curve] |
| CN(C)S(=O)(=O)N1CCN(c2ccc([N+](=O)[O-])c(N3CCCCC3)c2)CC1 | 0.631 µM [rising, full curve, poor fit] | – |
| Cc1ccc(N2CCN(C(=O)c3cnn(-c4ccc(C)c(C)c4)c3C3CCNCC3)CC2)c(C)c1 | 15.8 µM [falling, partial curve, poor fit] | 22.4 µM [falling, partial curve] |
| N#Cc1cc(N)ccc1-n1cccc1 | 35.5 µM [falling, single point] | 35.5 µM [falling, single point] |
| Cc1cc(C)nc(-n2nc(C)c(Sc3ccc(F)cc3)c2N)n1 | – | 14.1 µM [rising, single point] |
| COc1ccc(C=O)cc1COc1ccc(Cl)cc1[N+](=O)[O-] | – | 0.0398 µM [falling, partial curve] |
| COc1ccc(/C=N/NC(=O)c2[nH]nc3c2CCc2ccccc2-3)cc1OC | – | 15.8 µM [rising, single point] |
| O=C(Nc1ccc(N2CCOCC2)cc1)Nc1ccc(Cl)c(Cl)c1 | – | 31.6 µM [rising, single point] |
| CC1CCCCN1c1ncnc2ccccc12 (stereo not given) | 20 µM [rising, partial curve] | 12.6 µM [rising, partial curve] |
| O=C(c1ccc2c(c1)N(Cc1cccc(Cl)c1)C(=O)c1ccccc1S2=O)N1CCN(c2cccc(C(F)(F)F)c2)CC1 (stereo not given) | 5.01 µM [falling, partial curve] | 0.891 µM [falling, partial curve, poor fit] |
| COc1cc(/C=C/C(=O)N2c3ccccc3Sc3ccc(C(F)(F)F)cc32)cc(OC)c1OC | 12.6 µM [rising, single point] | 25.1 µM [rising, single point] |
| O=c1cc(N2CCCCC2)c(-c2ccccc2)nn1Cc1c(Cl)cccc1Cl | 15.8 µM [falling, single point] | 12.6 µM [falling, partial curve] |
| O=C(Cn1c(=O)n2nc(-c3cccc(F)c3)nc2c2ccccc21)N1CCN(c2ccc(F)cc2)CC1 | – | 6.31 µM [falling, single point] |
